Several values for one entry are separate records, joined by “and”; a condition that tells them apart may be missing. Equal entries are not always repeated. Among all 320,000 compounds or so, about 22,000 (6.9%) were called active. This list was built around the results that the source calls inconclusive (neither active nor inactive); the mix of calls is not that of the screen. Calls follow the shape of the dose curve; as a rule, active = well fitted inhibition curve with a large enough effect; inconclusive = small, poorly fitted or top-dose-only effect, or another doubt; inactive = no such curve, though single readings can be large or run the other way. Where the call is inconclusive, the potency comes from a doubtful curve fit. More than one record can exist for a structure, and the calls need not agree.
Assay: Primary qHTS for delayed death inhibitors of the malarial parasite plastid, 96 hour incubation
Details: P. falciparum luciferase reporter growth; series mostly up to 28.7 µM
In short: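 Two parasite generations (96 h, 37 C, 5% CO2) of compound exposure in infected erythrocytes (0.05% parasitemia, 2% hematocrit). Luciferase-reporter P. falciparum; decreased luminescence indicates inhibited growth, aimed at apicoplast-acting delayed death.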
Potency is read from the fitted curve at half-maximal effect.

**Q.** Which Potency does the source give for `COC(=O)c1cccc(NC(=O)/C(=C\c2ccccc2)NC(=O)c2ccccc2Cl)c1` here?
**A.** The Potency was inconclusive: 0.104 µM [inhibitor, full curve, poor fit].

**Q.** For `COc1cc(C2=NOC(C(=O)Nc3cccnc3)C2)cc(OC)c1OC` (stereo not given), which Potency is on record?
**A.** The Potency was inconclusive: 18.5 µM [inhibitor, single point].

**Q.** For `Oc1cccc2c(NC(=S)Nc3ccc(OC(F)F)cc3)cccc12`, which Potency is on record?
**A.** Its Potency is inconclusive: 3.29 µM [inhibitor, partial curve, poor fit].

**Q.** With `O=C(CCc1ccccc1)N1C[C@H]2C[C@@H](C1)c1cccc(=O)n1C2` as the compound, how does the Potency read?
**A.** Its Potency is inconclusive: 18.5 µM [inhibitor, single point].

**Q.** Which Potency does the source give for `N#Cc1nc(Nc2cccc(Cl)c2)c2ncn(C3CCCC3)c2n1` here?
**A.** The Potency was inconclusive: 13.1 µM [inhibitor, partial curve, poor fit].

**Q.** With `CCOc1ccc(S(=O)(=O)Nc2nc3ccccc3nc2-n2ccc(=NC(=O)c3cccs3)cc2)cc1` as the compound, how does the Potency read?
**A.** Its Potency is inconclusive: 18.5 µM [inhibitor, single point].

**Q.** Which Potency does the source give for `CC(NC(=O)c1c(O)c2ccccc2[nH]c1=O)c1ccccc1` (stereo not given) here?
**A.** The Potency was “inactive”.

**Q.** With `CC(C)N(Cc1nc(-c2ccc(Cl)cc2)no1)C(=O)C(c1ccccc1)c1ccccc1` as the compound, how does the Potency read?
**A.** Its Potency is active: 8.28 µM.

**Q.** With `NC(=O)CCN1CCN(CCOC2Cc3cc(Cl)ccc3Sc3ccccc32)CC1` (stereo not given) as the compound, how does the Potency read?
**A.** Its Potency is inconclusive: 16.5 µM [inhibitor, single point].

**Q.** With `CN(C)c1nc(SCc2ccc(Cl)cc2)nc2c1CCCC2` as the compound, how does the Potency read?
**A.** The Potency was inconclusive: 11.7 µM [inhibitor, single point].

**Q.** Which Potency does the source give for `COc1cccc(C(=O)N2CCN(C(=O)C3CCCO3)CC2)c1` (stereo not given) here?
**A.** The Potency was “inactive”.

**Q.** With `COc1ccc(N2CCN(C(=O)c3cn(CC4CCCCC4)nn3)CC2)cc1` as the compound, how does the Potency read?
**A.** The Potency was inconclusive: 13.1 µM [inhibitor, partial curve].

**Q.** With `Cc1nc(COC(=O)c2ccc(S(=O)(=O)N3CCCC3)cc2)cs1` as the compound, how does the Potency read?
**A.** Its Potency is inconclusive: 0.0026 µM [inhibitor, full curve, poor fit].

**Q.** Which Potency does the source give for `Nc1nc(-c2ccc3c(c2)CCO3)cs1` here?
**A.** Its Potency is inconclusive: 10.4 µM [inhibitor, single point].

**Q.** For `CN(C)c1cccc2c1C(=O)c1ccccc1C2=O`, which Potency is on record?
**A.** Its Potency is “inactive”.

**Q.** With `COc1ccc(Nc2nc3nonc3nc2N2CCCCC2)cc1` as the compound, how does the Potency read?
**A.** The Potency was inconclusive: 16.5 µM [inhibitor, partial curve, poor fit].

**Q.** Which Potency does the source give for `Cc1[nH]c(=O)[nH]c(=O)c1CSCC(=O)OCC(=O)c1ccc(Br)cc1` here?
**A.** Its Potency is “inactive”.

**Q.** With `CCOC(=O)C1CCCCN1Cc1cccc(Oc2ccccc2)c1` (stereo not given) as the compound, how does the Potency read?
**A.** The Potency was inconclusive: 0.37 µM [inhibitor, full curve].

**Q.** For `CC(c1ccon1)N(C)Cc1cn(Cc2ccccc2)nc1-c1ccc2c(c1)OCO2` (stereo not given), which Potency is on record?
**A.** The Potency was inconclusive: 18.5 µM [inhibitor, single point].

**Q.** For `Cc1ccc2c(C)c(C(=O)N3CCN(c4cnccn4)CC3)oc2c1C`, which Potency is on record?
**A.** Its Potency is inconclusive: 3.7 µM [inhibitor, full curve].

**Q.** Which Potency does the source give for `Cc1ccc(NC(=O)Nc2cccc(F)c2)nc1` here?
**A.** The Potency was inconclusive: 1.47 µM [inhibitor, full curve].

**Q.** For `COc1ccc(C)cc1NC(=O)C(C)N(c1ccc(C)cc1)S(C)(=O)=O` (stereo not given), which Potency is on record?
**A.** The Potency was “inactive”.

**Q.** With `CCCCN1C[C@H](Cc2ccccc2)[C@@H](CC(=O)Nc2ccccc2)C1=O` as the compound, how does the Potency read?
**A.** Its Potency is inconclusive: 13.1 µM [inhibitor, single point].

**Q.** For `CCN1C(=NCc2ccc(OC)cc2)N[C@@H](CCc2ccccc2)[C@H](C(=O)NCc2ccc(OC)cc2)[C@H]1C`, which Potency is on record?
**A.** Its Potency is active: 5.22 µM.

**Q.** With `Cc1cccc(OCC(=O)NC(=S)N2CCCc3ccccc32)c1` as the compound, how does the Potency read?
**A.** The Potency was active: 9.28 µM.

**Q.** Which Potency does the source give for `CC(C)OC(=O)CSc1nnc(-c2cccnc2)n1N` here?
**A.** Its Potency is inconclusive: 13.1 µM [inhibitor, partial curve, poor fit].

**Q.** For `CCc1ccc(/C=N/NC(=O)c2nnn(-c3nonc3N)c2CN2CCOCC2)cc1`, which Potency is on record?
**A.** The Potency was “inactive”.

**Q.** Which Potency does the source give for `O=c1[nH]c2ccccc2c(O)c1O` here?
**A.** The Potency was active: 10.4 µM.

**Q.** With `CCn1c(SCc2nc3cc(OC)c(OC)cc3c(=O)[nH]2)nc2ccccc21` as the compound, how does the Potency read?
**A.** The Potency was inconclusive: 0.0738 µM [inhibitor, full curve, poor fit].

**Q.** Which Potency does the source give for `CCNC(=S)N1CCN(c2ccc([N+](=O)[O-])cc2)CC1` here?
**A.** The Potency was active: 6.57 µM.

**Q.** For `Cn1c(-c2c(N)n(CCc3ccccc3)c3nc4ccccc4nc23)nc2ccccc21`, which Potency is on record?
**A.** The Potency was active: 5.22 µM.

**Q.** For `CC1(C)NC(=O)N(CC(O)COc2ccccc2C(=O)N2CCCCC2)C1=O` (stereo not given), which Potency is on record?
**A.** The Potency was inconclusive: 18.5 µM [inhibitor, single point].

**Q.** Which Potency does the source give for `O=C(c1ccc(Cl)cc1)C1CCCN(Cc2ccc(Oc3ncccn3)cc2)C1` (stereo not given) here?
**A.** The Potency was inconclusive: 18.5 µM [inhibitor, single point].

**Q.** With `COc1ccc(NS(=O)(=O)c2cccc3nsnc23)cc1OC` as the compound, how does the Potency read?
**A.** Its Potency is inconclusive: 10.4 µM [inhibitor, single point].

**Q.** For `CCc1cccc(C)c1NC(=O)c1ccc2c(c1)CCN2S(C)(=O)=O`, which Potency is on record?
**A.** Its Potency is “inactive”.

**Q.** For `CC1(C)CC(=O)C=C(NNC(=O)c2ccccc2O)C1`, which Potency is on record?
**A.** The Potency was “inactive”.

**Q.** With `NC(=O)NC(=O)Cc1ccccc1` as the compound, how does the Potency read?
**A.** The Potency was inconclusive: 4.26 µM [inhibitor, full curve, poor fit].

**Q.** Which Potency does the source give for `O=C(NCc1ccccn1)c1ccc(Cl)c(S(=O)(=O)N2CCOCC2)c1` here?
**A.** The Potency was “inactive”.

**Q.** For `CCC1(c2ccc(Cl)cc2)NC(=S)N(c2ccccc2)N1` (stereo not given), which Potency is on record?
**A.** Its Potency is “inactive”.

**Q.** For `CC(C)NC(=O)C(c1ccc(F)cc1)N(Cc1ccco1)C(=O)CCC(=O)Nc1ccccn1` (stereo not given), which Potency is on record?
**A.** The Potency was “inactive”.

**Q.** For `CCOC(=O)c1c(NC(=O)CSc2ncccn2)sc(C(=O)NC)c1C`, which Potency is on record?
**A.** The Potency was inconclusive: 3.7 µM [inhibitor, full curve].

**Q.** For `O=C1C=C(c2ccc3ncccc3c2)C[C@@H](c2ccc3c(c2)OCO3)C1`, which Potency is on record?
**A.** The Potency was inconclusive: 0.0657 µM [inhibitor, full curve, poor fit].

**Q.** With `CC1Cn2c(nnc2-c2ccccc2O)S1` (stereo not given) as the compound, how does the Potency read?
**A.** The Potency was “inactive”.

**Q.** With `CCOc1ccccc1C(=O)NCCCCCC(=O)O` as the compound, how does the Potency read?
**A.** Its Potency is inconclusive: 18.5 µM [inhibitor, single point].

**Q.** For `CCn1c(Cc2ccccc2)nnc1SCC(=O)NC1CC1`, which Potency is on record?
**A.** The Potency was inconclusive: 11.7 µM [inhibitor, single point].

**Q.** With `O=C(CCCCCNC(=O)c1ccccc1)N/N=C/c1ccccc1O` as the compound, how does the Potency read?
**A.** The Potency was “inactive”.

**Q.** For `CC(Oc1ccc(NC(=O)c2ccco2)cc1)C(=O)N1c2ccccc2CC1C` (stereo not given), which Potency is on record?
**A.** Its Potency is active: 5.22 µM.

**Q.** With `Cc1ccc(S(=O)(=O)N(CCO)Cc2cc3ccc(C)c(C)c3[nH]c2=O)cc1` as the compound, how does the Potency read?
**A.** The Potency was inconclusive: 13.1 µM [inhibitor, single point].

**Q.** With `C/C(Cl)=C\CSc1nnc2n(N)c(=O)c3ccccc3n12` as the compound, how does the Potency read?
**A.** Its Potency is inconclusive: 1.31 µM [inhibitor, partial curve, poor fit].

**Q.** For `O=C(Nc1cccc(C(F)(F)F)c1)c1cc(S(=O)(=O)N2CCCCC2)ccc1N1CCOCC1`, which Potency is on record?
**A.** The Potency was inconclusive: 18.5 µM [inhibitor, single point].

**Q.** For `CNC(=O)/C(=C\c1ccc2c(c1)OCO2)NC(=O)c1ccc(Br)cc1`, which Potency is on record?
**A.** The Potency was “inactive”.

**Q.** Which Potency does the source give for `COc1ccc(-c2cc3nc(C)cc(-c4ccc(OC)cc4)n3n2)cc1` here?
**A.** Its Potency is inconclusive: 10.4 µM [inhibitor, single point].

**Q.** For `CN(CC(=O)Nc1ccc(F)cc1)C(=O)COc1ccccc1Cc1ccccc1`, which Potency is on record?
**A.** Its Potency is active: 5.22 µM.

**Q.** With `Cc1c(Cl)cccc1NC(=S)N1CCN(c2ccc([N+](=O)[O-])cn2)CC1` as the compound, how does the Potency read?
**A.** The Potency was “inactive”.

**Q.** With `COC(=O)c1ccccc1OC(=O)c1cccnc1` as the compound, how does the Potency read?
**A.** Its Potency is inconclusive: 18.5 µM [inhibitor, single point].

**Q.** Which Potency does the source give for `COc1ccccc1-n1c(-c2ccccc2)c[n+]2c1CCc1ccccc1-2` here?
**A.** Its Potency is inconclusive: 928 nM [inhibitor, full curve] and inconclusive: 1.04 µM [inhibitor, full curve].

**Q.** For `COc1cc(OC)cc(OCC(O)Cn2ccnc2)c1` (stereo not given), which Potency is on record?
**A.** The Potency was inconclusive: 13.1 µM [inhibitor, partial curve, poor fit].

**Q.** For `CCC(C)NC(=O)c1ccc(CNS(=O)(=O)c2ccc3c(c2)C(C)(C)C(=O)N3C)cc1` (stereo not given), which Potency is on record?
**A.** Its Potency is active: 9.28 µM.

**Q.** For `Cc1cc(NC(=O)Cn2nc3c(cc2=O)CCCC3)ccc1Br`, which Potency is on record?
**A.** Its Potency is inconclusive: 20.8 µM [inhibitor, partial curve, poor fit].

**Q.** With `CCCCc1ncc(CN2CCC(n3nccc3NC(=O)c3ccccc3Cl)CC2)[nH]1` as the compound, how does the Potency read?
**A.** The Potency was inconclusive: 13.1 µM [inhibitor, partial curve].

**Q.** Which Potency does the source give for `CCn1cc([C@@H]2C[C@H]3CN(Cc4cccc(Cl)c4)C(=O)[C@]34CCCN24)c(C)n1` here?
**A.** The Potency was inconclusive: 1.85 µM [inhibitor, full curve, poor fit].

**Q.** With `Cc1ccc(C(C)C)c(OCC(=O)NS(=O)(=O)c2ccc(Cl)cc2)c1` as the compound, how does the Potency read?
**A.** Its Potency is “inactive”.

**Q.** With `Cc1ccccc1C(=O)Oc1cccc2c(O)cccc12` as the compound, how does the Potency read?
**A.** Its Potency is inconclusive: 11.7 µM [inhibitor, single point].

**Q.** Which Potency does the source give for `COCCCN=CC1=C(O)CC(c2ccccc2)CC1=O` (stereo not given) here?
**A.** The Potency was “inactive”.

**Q.** With `COc1ccc(C(=O)/C=C/Nc2ccc(S(=O)(=O)Nc3nc(C)cc(C)n3)cc2)cc1OC` as the compound, how does the Potency read?
**A.** The Potency was inconclusive: 9.28 µM [inhibitor, single point].

**Q.** Which Potency does the source give for `Cc1nc(-c2ccc(C(=O)Nc3cc(S(N)(=O)=O)ccc3C)cc2)cs1` here?
**A.** The Potency was inconclusive: 11.7 µM [inhibitor, single point].

**Q.** Which Potency does the source give for `COc1ccc(/C=C/C(=O)C23CC4CC(CC(C4)C2)C3)cc1CN1CCOCC1` here?
**A.** The Potency was “inactive”.

**Q.** For `CC(=O)c1ccc(C(=O)N2CCC(CO)(Cc3cccc(C(F)(F)F)c3)CC2)cc1`, which Potency is on record?
**A.** The Potency was inconclusive: 18.5 µM [inhibitor, single point].

**Q.** Which Potency does the source give for `COc1ccc(COC(=O)c2ccc(Cl)c(S(=O)(=O)N3CCOCC3)c2)cc1F` here?
**A.** Its Potency is active: 14.7 µM.

**Q.** Which Potency does the source give for `COc1ccc(NC(C)=O)cc1NC(C)C(=O)Nc1ccc(F)cc1` (stereo not given) here?
**A.** The Potency was inconclusive: 0.0026 µM [inhibitor, full curve, poor fit].

— PubChem BioAssay AID504834 (National Center for Advancing Translational Sciences (NCATS), 2011)
